Article doi:10.1101/2020.12.09.417667
Results are given in words; binding and its absence hold for the method and conditions named. In cells and extracts the contact can be indirect. Some binding calls cover weakened binding; strength is not graded here. For some of these results: Sequences can lack the tags named with a protein.

Chains of the proteins cited; added tags and fusions are not shown.
UniProt P61086: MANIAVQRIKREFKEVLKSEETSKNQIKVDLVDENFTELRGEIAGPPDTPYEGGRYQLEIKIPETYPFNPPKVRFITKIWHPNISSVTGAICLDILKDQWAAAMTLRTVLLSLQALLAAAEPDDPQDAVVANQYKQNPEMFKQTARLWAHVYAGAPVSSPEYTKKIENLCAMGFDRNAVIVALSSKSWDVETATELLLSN

How the values were obtained:
Assay in all cases: co-IP
ERLIN1-FLAG = target: T1, ERLIN1-FLAG (UniProt O75477)
T1 sequence: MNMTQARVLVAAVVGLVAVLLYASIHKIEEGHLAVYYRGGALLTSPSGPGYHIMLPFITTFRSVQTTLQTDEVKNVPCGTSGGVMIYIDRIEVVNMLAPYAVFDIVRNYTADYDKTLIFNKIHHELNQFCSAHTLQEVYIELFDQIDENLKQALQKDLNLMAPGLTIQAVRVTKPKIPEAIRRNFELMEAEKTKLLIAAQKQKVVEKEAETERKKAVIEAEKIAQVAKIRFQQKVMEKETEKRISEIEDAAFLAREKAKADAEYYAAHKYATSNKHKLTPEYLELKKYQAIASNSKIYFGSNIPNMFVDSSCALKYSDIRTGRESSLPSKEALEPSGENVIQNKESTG

ERLIN2-FLAG = target: T2, ERLIN2-FLAG (UniProt O94905)
T2 sequence: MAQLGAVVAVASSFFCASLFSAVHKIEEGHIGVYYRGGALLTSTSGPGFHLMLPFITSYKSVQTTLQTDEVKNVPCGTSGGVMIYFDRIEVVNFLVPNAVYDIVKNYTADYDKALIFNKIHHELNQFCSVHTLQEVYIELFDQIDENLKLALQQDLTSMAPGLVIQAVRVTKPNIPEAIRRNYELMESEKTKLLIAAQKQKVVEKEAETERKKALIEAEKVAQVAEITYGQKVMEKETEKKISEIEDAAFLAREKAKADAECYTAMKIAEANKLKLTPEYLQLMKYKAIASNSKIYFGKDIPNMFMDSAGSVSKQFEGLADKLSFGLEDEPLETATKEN

FAF2-FLAG = target: T3, FAF2-FLAG (UniProt Q96CS3)
T3 sequence: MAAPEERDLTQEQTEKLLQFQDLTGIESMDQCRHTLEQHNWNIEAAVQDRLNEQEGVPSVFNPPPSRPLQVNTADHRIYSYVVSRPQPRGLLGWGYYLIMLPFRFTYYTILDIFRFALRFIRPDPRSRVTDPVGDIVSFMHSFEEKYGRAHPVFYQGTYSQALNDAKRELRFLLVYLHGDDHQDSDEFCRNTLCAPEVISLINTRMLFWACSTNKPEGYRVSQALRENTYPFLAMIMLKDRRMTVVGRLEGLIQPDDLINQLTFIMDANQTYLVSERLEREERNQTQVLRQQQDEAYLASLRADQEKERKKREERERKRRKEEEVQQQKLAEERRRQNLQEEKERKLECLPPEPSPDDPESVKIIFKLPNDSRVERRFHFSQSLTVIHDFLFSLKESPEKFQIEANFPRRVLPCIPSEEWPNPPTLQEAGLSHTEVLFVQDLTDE

FLAG-UBE2K = FLAG-UBE2K (UniProt P61086)
UBXN4-FLAG = target: T4, UBXN4-FLAG (UniProt Q92575)
T4 sequence: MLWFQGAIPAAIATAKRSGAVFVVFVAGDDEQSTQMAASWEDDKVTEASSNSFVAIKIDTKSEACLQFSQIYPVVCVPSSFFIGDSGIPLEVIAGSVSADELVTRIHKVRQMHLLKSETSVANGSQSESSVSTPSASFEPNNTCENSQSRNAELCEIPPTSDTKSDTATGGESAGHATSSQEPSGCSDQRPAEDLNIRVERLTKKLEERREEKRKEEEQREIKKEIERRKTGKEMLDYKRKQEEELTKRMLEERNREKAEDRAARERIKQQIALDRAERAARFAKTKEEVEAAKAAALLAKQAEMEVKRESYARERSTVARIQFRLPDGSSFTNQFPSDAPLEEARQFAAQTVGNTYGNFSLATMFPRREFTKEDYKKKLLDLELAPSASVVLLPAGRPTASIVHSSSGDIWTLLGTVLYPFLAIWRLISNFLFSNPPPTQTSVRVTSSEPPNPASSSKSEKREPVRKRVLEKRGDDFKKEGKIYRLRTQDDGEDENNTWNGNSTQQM

PORCN-FLAG = target: T5, PORCN-FLAG (UniProt Q9H237)
T5 sequence: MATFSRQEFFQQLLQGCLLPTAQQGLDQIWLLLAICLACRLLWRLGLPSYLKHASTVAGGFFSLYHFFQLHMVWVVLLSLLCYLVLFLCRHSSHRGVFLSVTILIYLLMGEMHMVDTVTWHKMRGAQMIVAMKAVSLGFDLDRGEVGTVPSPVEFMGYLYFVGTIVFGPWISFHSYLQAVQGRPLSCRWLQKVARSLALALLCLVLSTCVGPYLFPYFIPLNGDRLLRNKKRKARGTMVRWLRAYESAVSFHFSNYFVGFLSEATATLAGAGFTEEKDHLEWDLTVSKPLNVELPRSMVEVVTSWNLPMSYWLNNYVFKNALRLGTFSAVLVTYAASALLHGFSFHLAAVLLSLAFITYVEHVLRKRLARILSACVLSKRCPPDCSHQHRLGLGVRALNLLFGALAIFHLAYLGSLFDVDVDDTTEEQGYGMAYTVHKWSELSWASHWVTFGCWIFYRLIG

| Molecule | binding (ERLIN1-FLAG) | binding (ERLIN2-FLAG) | binding (FAF2-FLAG) | binding (FLAG-UBE2K) | binding (UBXN4-FLAG) | binding (PORCN-FLAG) |
| --- | --- | --- | --- | --- | --- | --- |
| endogenous VCP (from UniProt P55072 1-806) | no binding |  |  |  |  |  |
| endogenous EVI/WLS (protein, UniProt Q5T9L3 1-541) MAGAIIENMSTKKLCIVGGILLVFQIIAFLVGGLIAPGPTTAVSYMSVKCVDARKNHHKTKWFVPWGPNHCDKIRDIEEAIPREIEANDIVFSVHIPLPHMEMSPWFQFMLFILQLDIAFKLNNQIRENAEVSMDVSLAYRDDAFAEWTEMAHERVPRKLKCTFTSPKTPEHEGRYYECDVLPFMEIGSVAHKFYLLNIRLPVNEKKKINVGIGEIKDIRLVGIHQNGGFTKVWFAMKTFLTPSIFIIMVWYWRRITMMSRPPVLLEKVIFALGISMTFINIPVEWFSIGFDWTWMLLFGDIRQGIFYAMLLSFWIIFCGEHMMDQHERNHIAGYWKQVGPIAVGSFCLFIFDMCERGVQLTNPFYSIWTTDIGTELAMAFIIVAGICLCLYFLFLCFMVFQVFRNISGKQSSLPAMSKVRRLHYEGLIFRFKFLMLITLACAAMTVIFFIVSQVTEGHWKWGGVTVQVNSAFFTGIYGMWNLYVFALMFLYAPSHKNYGEDQSNGDLGVHSGEELQLTTTITHVDGPTEIYKLTRKEAQE | no binding | binds | binds | no binding | binds |  |
| endogenous ERLIN2 (protein, UniProt O94905 1-339) MAQLGAVVAVASSFFCASLFSAVHKIEEGHIGVYYRGGALLTSTSGPGFHLMLPFITSYKSVQTTLQTDEVKNVPCGTSGGVMIYFDRIEVVNFLVPNAVYDIVKNYTADYDKALIFNKIHHELNQFCSVHTLQEVYIELFDQIDENLKLALQQDLTSMAPGLVIQAVRVTKPNIPEAIRRNYELMESEKTKLLIAAQKQKVVEKEAETERKKALIEAEKVAQVAEITYGQKVMEKETEKKISEIEDAAFLAREKAKADAECYTAMKIAEANKLKLTPEYLQLMKYKAIASNSKIYFGKDIPNMFMDSAGSVSKQFEGLADKLSFGLEDEPLETATKEN |  |  |  |  |  | binds |
| endogenous FAF2 (protein, UniProt Q96CS3 1-445) MAAPEERDLTQEQTEKLLQFQDLTGIESMDQCRHTLEQHNWNIEAAVQDRLNEQEGVPSVFNPPPSRPLQVNTADHRIYSYVVSRPQPRGLLGWGYYLIMLPFRFTYYTILDIFRFALRFIRPDPRSRVTDPVGDIVSFMHSFEEKYGRAHPVFYQGTYSQALNDAKRELRFLLVYLHGDDHQDSDEFCRNTLCAPEVISLINTRMLFWACSTNKPEGYRVSQALRENTYPFLAMIMLKDRRMTVVGRLEGLIQPDDLINQLTFIMDANQTYLVSERLEREERNQTQVLRQQQDEAYLASLRADQEKERKKREERERKRRKEEEVQQQKLAEERRRQNLQEEKERKLECLPPEPSPDDPESVKIIFKLPNDSRVERRFHFSQSLTVIHDFLFSLKESPEKFQIEANFPRRVLPCIPSEEWPNPPTLQEAGLSHTEVLFVQDLTDE |  | binds |  |  | no binding | binds |
